The assay in a line: qHTS Assay to Find Inhibitors of Chronic Active B-Cell Receptor Signaling. The conditions noted are these: ABC-DLBCL IkBa-CBG/CBR reporter, luminescence ratio (green luciferase fused to IkBa over red control in TMD8 lymphoma cells), 4 h. An outline of the steps: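 Concentration-response series (up to 46 uM) were applied to TMD8 dual-reporter cells for 4 h at 37C with doxycycline. Green/red ratio, after filter-overlap correction, defined %Activity; red signal alone was normalised to basal cells and zero luminescence.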
In general terms: Quantitative high-throughput screening tests each substance at several concentrations.

Setting [1] is: measured here: CBR red luminescence, cell number.

AC50 data for 18 compounds are collected here from PubChem BioAssay AID493014 (National Center for Advancing Translational Sciences (NCATS), 2011).

The other results are listed elsewhere or left out. The main result of the screen is listed elsewhere. These columns were measured beside it and carry no call. The list favours compounds with an active or inconclusive main result. The note in brackets gives the kind of curve behind each potency; many fits are weak.

On to `COc1ccc(N(CC(=O)N/N=C/c2ccc(F)cc2)S(=O)(=O)c2ccccc2)cc1`, for which the concentration at half-maximal activity (AC50) (in general, the concentration at which the activity in the assay is half-maximal) under setting [1] is 11.2 µM [falling, single point].
Still for that read-out and setting: the result for `CN1CCN(C(=O)c2ccc(-c3ccc(Br)cc3)o2)CC1` reads 0.184 µM [rising, full curve, poor fit]; that for `CCCNC(=O)Cn1nc(C(F)(F)F)c2c1CCCC2`, 18.4 µM [falling, single point]; that for `CC(=O)c1cc2c(=O)c3cc(C)ccc3oc2nc1C`, 1.84 µM [rising, full curve, poor fit].
On to `Clc1ccc(OCCn2c(-c3ccco3)nc3ccccc32)cc1`, for which the AC50 under setting [1] is 23.1 µM [falling, single point].
Same read-out and setting: the result for `CC(C)C(=O)NC(=S)N1CCc2ccccc21` reads 0.651 µM [falling, partial curve, poor fit]; that for `COc1ccc(-c2cc(C(=O)N3CCCCCC3)no2)cc1`, 31.6 µM [falling, single point].
Consider `Cc1ccc(NC(=O)Nc2ccc3c(c2)CCC3)cc1C`, for which, under setting [1], the AC50 is 0.708 µM [rising, full curve, poor fit].
Still for that read-out and setting: the result for `COc1ccc(-c2cn[nH]c2-c2ccc(OCc3ccccc3F)cc2O)cc1OC` reads 14.1 µM [falling, single point]; that for `O=S(=O)(NCc1ccc(Cl)cc1)NCc1ccccc1F`, 11.2 µM [rising, single point]; that for `O=C(C(=O)N1CCCc2ccccc21)c1c[nH]c2ccccc12`, 10 µM [falling, partial curve].
The same measure, in the same setting: the same measure for `C/C(CC(=O)Nc1ccc(OCc2ccccc2)cc1)=N\NC(=O)C(=O)Nc1cccc(C)c1`: 16.4 µM [falling, partial curve, poor fit]; for `O=C(NCc1ccccc1Cl)C1CCC(CNc2nc(=S)[nH]c3ccccc23)CC1` (centres undefined): 10 µM [rising, partial curve, poor fit].
Still for that read-out and setting: the result for `Cc1ccc2nc(CSc3nnc(Nc4ccccc4F)s3)cc(=O)n2c1` reads 3.66 µM [falling, full curve].
Turning to `Cc1nnc(SCC(=O)Nc2cc(C(F)(F)F)ccc2N2CCOCC2)o1`, the AC50 is, setting by setting: under setting [1], 0.731 µM [falling, full curve]; (measured here: IkBa-CBG green luminescence) 0.82 µM [rising, full curve, poor fit].
As to `COc1ccc2cc(C(=O)N3CCN(C)CC3)[nH]c2c1`, under setting [1], the AC50 was 17.8 µM [falling, single point].
Take `COc1ccc(C(=O)c2cnc(C(C)C)n2C)cc1`: under setting [1], the AC50 is 6.51 µM [rising, partial curve, poor fit].
Still for that read-out and setting: the result for `CCc1nnc(NC(=O)c2ccc(Cl)nc2)s1` reads 10 µM [falling, partial curve, poor fit].
